Assay results reported in PMC5573408, “Pepcan-12 (RVD-hemopressin) is a CB2 receptor positive allosteric modulator constitutively secreted by adrenals and in liver upon tissue damage” (Scientific Reports, 2017).

Assay: LC-MS/MS quantification of pepcans in mouse tissues
Type: in vivo
Details: for PC-23 level in adrenals: Swiss albino female mice, saline or LPS

Question: With “SALSDLHAHKLRVDPVNFKLLSH [Pepcan-23, putative precursor of pepcan-12]” as the sequence, how does the “PC-23 level in adrenals” value read?
Answer: Its value is “below the limit of detection”.

Question: And the “PC-23 level in adrenals” value (listed as PC-23)?
Answer: Its value is “< LOD”.

Question: What about the “pepcan-23 amount in brain” value (mouse, in vivo) of the same sequence?
Answer: Its value is 10 to 15 pmol/g.
